Values from PubChem BioAssay AID652243 (Drosophila RNAi Screening Center, 2013)
The deposit covers about 24,000 reagents; this is an unselected part of those with a known target gene and a result. Of all reagents, 246 (1%) got an active call. 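Plates not normalised; calls are printed but the firefly/Renilla ratio behind them is not deposited; fold cut for lowering reported inconsistently.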 Raw values are not corrected between plates. Reagents against one gene are numbered here. Names joined by + are all predicted targets of the reagent. Not stated in the record: the amount of reagent.

Aim: 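Fly genes required for human androgen receptor driven transcription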 (primary screen)
Cells: Drosophila S2R+ cells
Reagents: long dsRNA against Drosophila genes
Duration: 72 h (48 h, then 24 h hormone)
Conditions: synthetic androgen R1881 at 10 nM for 24 h
Read-out: 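Firefly light from an androgen-responsive reporter and Renilla control light per well, raw and unnormalised, for each of two replicates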
Reading the numbers: firefly reporter light: higher = more light from androgen-responsive reporter; Renilla control light: higher = more constitutive control signal (cell number, transfection)
Call rule: 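Across duplicate plates, a knock-down whose log firefly/Renilla ratio shifted a set fold down or up from the GFP/LacZ control mean was a hit; the downward cut appears as both 1.5 and 3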
Meaning of the calls: active = hit: reporter lowered or raised; inactive = no hit

predicted target | reagent no. | firefly reporter light, replicate 1 | firefly reporter light, replicate 2 | Renilla control light, replicate 1 | Renilla control light, replicate 2 | outcome
fz3 (frizzled 3) | 1 | 2.46e5 | 2.38e5 | 2.68e6 | 3.18e6 | inactive
fz3 (frizzled 3) | 2 | 6.60e5 | 5.98e5 | 1.15e6 | 1.15e6 | inactive
pst (pastrel) | 1 | 8.43e5 | 6.53e5 | 1.58e6 | 1.45e6 | inactive
ninaA (neither inactivation nor afterpotential A) | 1 | 7.38e5 | 7.67e5 | 2.50e6 | 2.16e6 | inactive
CG14244 | 1 | 2.89e5 | 2.30e5 | 2.96e6 | 2.33e6 | inactive
CG13807 | 1 | 75261 | 1.03e5 | 9.89e5 | 1.00e6 | inactive
CG13807 | 2 | 3.90e5 | 4.37e5 | 6.92e5 | 8.48e5 | inactive
Gba1b (Glucocerebrosidase 1b) | 1 | 5.66e5 | 7.51e5 | 2.10e6 | 1.53e6 | inactive
CG11892 | 1 | 59667 | 80651 | 4.95e5 | 8.83e5 | inactive
CG11475 | 1 | 1.32e6 | 3.22e5 | 2.26e6 | 6.73e5 | inactive
CG11475 | 2 | 6.34e5 | 7.63e5 | 9.43e5 | 9.05e5 | inactive
Obp57c (Odorant-binding protein 57c) | 1 | 85459 | 99652 | 7.20e5 | 7.94e5 | inactive
CG3894 | 1 | 1.78e5 | 2.30e5 | 6.09e5 | 7.67e5 | inactive
CG3894 | 2 | 80929 | 69741 | 1.90e5 | 2.16e5 | inactive
CG3894 | 3 | 6.74e5 | 1.05e6 | 1.30e6 | 2.06e6 | inactive
CG14259 | 1 | 1.37e5 | 1.97e5 | 1.73e6 | 1.99e6 | inactive
CG31279 | 1 | 1.18e5 | 1.29e5 | 1.68e5 | 2.81e5 | inactive
CCT6 (Chaperonin containing TCP1 subunit 6) | 1 | 1.39e5 | 1.06e5 | 8.06e5 | 6.07e5 | inactive
Uch (Ubiquitin carboxy-terminal hydrolase) | 1 | 1.05e6 | 7.86e5 | 5.35e6 | 2.43e6 | inactive
CG32432 | 1 | 1.68e5 | 1.97e5 | 1.72e6 | 2.04e6 | inactive
CG14034 | 1 | 1.05e5 | 72181 | 8.76e5 | 6.82e5 | inactive
CG12343 | 1 | 2.40e5 | 1.86e5 | 1.64e6 | 1.32e6 | inactive
CG14607 | 1 | 1.18e5 | 1.26e5 | 2.26e6 | 1.80e6 | inactive
BicD (Bicaudal D) | 1 | 1.36e6 | 1.44e6 | 1.57e6 | 1.72e6 | inactive
CkIIbeta (Casein kinase II beta subunit) | 1 | 2.93e5 | 3.87e5 | 2.81e6 | 2.96e6 | inactive
CG15412 | 1 | 1.11e5 | 91051 | 8.16e5 | 9.61e5 | inactive
CtsL2 (Cathepsin L2) | 1 | 9.95e5 | 7.69e5 | 2.64e6 | 2.00e6 | inactive
up (upheld) | 1 | 20139 | 18896 | 2.69e5 | 2.15e5 | inactive
up (upheld) | 2 | 2.87e5 | 2.71e5 | 9.38e5 | 1.09e6 | inactive
bsk (basket) | 1 | 7.07e5 | 7.95e5 | 2.03e6 | 1.77e6 | inactive
bsk (basket) | 2 | – | – | – | – | inactive
bsk (basket) | 3 | – | – | – | – | inactive
LanB2 (Laminin B2) | 1 | 1.09e6 | 4.48e5 | 2.34e6 | 1.39e6 | inactive
CG31156 | 1 | 25329 | 44580 | 3.24e5 | 3.48e5 | inactive
CG31156 | 2 | 2.75e5 | 3.31e5 | 2.71e6 | 2.82e6 | inactive
CG3008 | 1 | 57385 | 53491 | 3.19e5 | 2.64e5 | inactive
CG3008 | 2 | – | – | – | – | inactive
CG12617 | 1 | 1.85e5 | 1.43e5 | 2.03e6 | 2.00e6 | inactive
CG12617 | 2 | 4.19e5 | 3.34e5 | 1.41e6 | 1.07e6 | inactive
Spn42Dc (Serpin 42Dc) | 1 | 1.19e5 | 1.25e5 | 1.17e6 | 5.58e5 | inactive
Gsc (Goosecoid) | 1 | 88046 | 1.04e5 | 3.98e5 | 5.41e5 | inactive
Gsc (Goosecoid) | 2 | 5.49e5 | 4.44e5 | 5.98e5 | 4.42e5 | inactive
Nedd8 (Nedd8 ubiquitin like modifier) | 1 | 1.67e5 | 1.46e5 | 1.77e6 | 1.22e6 | inactive
cni (cornichon) | 1 | 1.82e5 | 1.97e5 | 2.47e6 | 2.93e6 | inactive
tos (tosca) | 1 | 1.40e6 | 5.04e5 | 1.76e6 | 1.11e6 | inactive
CG33229 | 1 | 80802 | 1.40e5 | 3.18e5 | 3.72e5 | inactive
CG33229 | 2 | 6.68e5 | 7.28e5 | 1.19e6 | 1.43e6 | inactive

No new results follow: an excerpt of the list.
predicted target | reagent no. | firefly reporter light, replicate 1 | firefly reporter light, replicate 2 | Renilla control light, replicate 1 | Renilla control light, replicate 2 | outcome
CG11475 | 1 | 1.32e6 | 3.22e5 | 2.26e6 | 6.73e5 | inactive
CG11475 | 2 | 6.34e5 | 7.63e5 | 9.43e5 | 9.05e5 | inactive
Obp57c (Odorant-binding protein 57c) | 1 | 85459 | 99652 | 7.20e5 | 7.94e5 | inactive
CG3894 | 1 | 1.78e5 | 2.30e5 | 6.09e5 | 7.67e5 | inactive
CG3894 | 2 | 80929 | 69741 | 1.90e5 | 2.16e5 | inactive
CG3894 | 3 | 6.74e5 | 1.05e6 | 1.30e6 | 2.06e6 | inactive
CG14259 | 1 | 1.37e5 | 1.97e5 | 1.73e6 | 1.99e6 | inactive
CG31279 | 1 | 1.18e5 | 1.29e5 | 1.68e5 | 2.81e5 | inactive

Next results follow:
predicted target | reagent no. | firefly reporter light, replicate 1 | firefly reporter light, replicate 2 | Renilla control light, replicate 1 | Renilla control light, replicate 2 | outcome
CG5174 | 1 | 6.73e5 | 7.71e5 | 7.76e5 | 6.61e5 | inactive
CG5174 | 2 | 3.95e5 | 3.62e5 | 1.88e6 | 1.56e6 | inactive
MRG15 (MORF-related gene 15) | 1 | 32355 | 65785 | 3.81e5 | 4.00e5 | inactive
CG12493 | 1 | 2.43e5 | 2.71e5 | 2.93e6 | 3.16e6 | inactive
CG12493 | 2 | 1.08e6 | 1.14e6 | 1.37e6 | 1.35e6 | inactive
Dok (Downstream of kinase) | 1 | 7867 | 6898 | 2.72e5 | 3.30e5 | active
Dok (Downstream of kinase) | 2 | 4.91e5 | 3.37e5 | 4.29e5 | 4.77e5 | inactive
Strica (Ser/Thr-rich caspase) | 1 | 3.22e5 | 3.15e5 | 2.22e6 | 1.53e6 | inactive
CG11566 (retired record) + stg1 | 1 | 19073 | 5776 | 1.28e5 | 82024 | inactive
CG11566 (retired record) + stg1 | 2 | 2.41e5 | 90667 | 6.69e5 | 4.46e5 | inactive
CG11566 (retired record) + stg1 | 3 | 3.71e5 | 1.66e5 | 7.39e5 | 6.17e5 | inactive
CG11566 (retired record) + stg1 | 4 | 2.85e5 | 2.16e5 | 9.12e5 | 6.71e5 | inactive
MESR3 (Misexpression suppressor of ras 3) | 1 | 1.12e5 | 98679 | 1.41e6 | 1.17e6 | inactive
CG9485 | 1 | 7.21e5 | 6.25e5 | 2.05e6 | 1.84e6 | inactive
CG42729 | 1 | 2.21e5 | 2.27e5 | 1.48e6 | 1.99e6 | inactive
CG11367 | 1 | 3.88e5 | 8.28e5 | 5.30e5 | 7.41e5 | inactive
l(1)G0289 (lethal (1) G0289) | 1 | 95361 | 93589 | 7.13e5 | 9.44e5 | inactive
l(1)G0289 (lethal (1) G0289) | 2 | 6.37e5 | 3.45e5 | 9.04e5 | 8.25e5 | inactive
Invadolysin | 1 | 1.96e5 | 2.03e5 | 1.70e6 | 1.63e6 | inactive
CG4661 | 1 | 4.73e5 | 4.26e5 | 4.55e6 | 3.23e6 | inactive
CG10914 | 1 | 65421 | 81506 | 1.47e6 | 1.47e6 | inactive
CG9663 | 1 | 6.32e5 | 8.02e5 | 2.20e6 | 1.58e6 | inactive
CG11601 | 1 | 64615 | 61089 | 4.08e5 | 5.76e5 | inactive
CG15537 | 1 | 1.85e5 | 2.17e5 | 1.31e6 | 2.42e6 | inactive
CG15537 | 2 | 6.90e5 | 6.49e5 | 7.96e5 | 8.87e5 | inactive
Gr23a (Gustatory receptor 23a) | 1 | 2.37e5 | 1.94e5 | 6.05e5 | 4.01e5 | inactive
Usp20-33 (Ubiquitin specific protease 20/33) | 1 | 1.14e6 | 1.01e6 | 2.75e6 | 2.16e6 | inactive
